PubChem BioAssay AID743456 – Peter MacCallum Cancer Centre | 2014

Aim: 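Identify miRNAs tied to vorinostat resistance or sensitivity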 (primary screen)
Cells: human HCT116-VR colon cancer cells, a vorinostat-resistant HCT116 line
Reagents: miRNA mimic
Duration: about 3 days from transfection to readout; drug present for the last 24 h
Treatment: vorinostat at 2.5 µM final for 24 h
Detection: 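Per-well live-cell protease fluorescence and caspase luminescence under 2.5 µM vorinostat for 24 h, scored as robust z-scores and against mock transfection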
Direction: viability robust z-score: higher = more viable cells; caspase robust z-score: higher = more caspase activity, more apoptosis
Rule for the call: 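Active when viability drops or caspase activity climbs beyond robust z thresholds, with wells of poor cell health excluded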
Shown is a random part of 878 deposited reagents. 27 of them (3.1%) count as active. 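27 mimics are marked active, unlike an earlier stated count of 24; the viability threshold is described inconsistently.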 Not all columns of the deposit are shown. Reagent sequences are not shown. Not given: the amount of reagent.

With hsa-miR-302a* the deposit lists viability robust z-score 1.02; caspase robust z-score -0.68; viability hit class no change; caspase hit class no change; inactive.
For hsa-miR-219-2-3p, the values are viability robust z-score -0.03; caspase robust z-score 0.48; viability hit class no change; caspase hit class no change; inactive.
hsa-miR-664 scored viability robust z-score -0.06; caspase robust z-score -0.88; viability hit class no change; caspase hit class no change; inactive.
hsa-miR-296-3p showed viability robust z-score 0.53; caspase robust z-score -0.07; viability hit class no change; caspase hit class no change; inactive.
With hsa-miR-599, the entry reads viability robust z-score 0.79; caspase robust z-score -0.25; viability hit class no change; caspase hit class no change; inactive.
hsa-miR-892b gave viability robust z-score -2.65; caspase robust z-score 2.94; viability hit class no change; caspase hit class no change; inactive.
With hsa-miR-151-5p the deposit lists viability robust z-score -0.43; caspase robust z-score -0.62; viability hit class no change; caspase hit class no change; inactive.
For hsa-miR-1246 the deposit lists viability robust z-score 0.2; caspase robust z-score 1.27; viability hit class no change; caspase hit class no change; inactive.
hsa-miR-380* gave viability robust z-score -1.38; caspase robust z-score 3.12; viability hit class no change; caspase hit class no change; inactive.
With hsa-miR-30d*, the values are viability robust z-score -0.32; caspase robust z-score -0.92; viability hit class no change; caspase hit class no change; inactive.
hsa-miR-548f gave viability robust z-score 1.24; caspase robust z-score 0.1; viability hit class no change; caspase hit class no change; inactive.
With hsa-miR-215, the values are viability robust z-score -1.14; caspase robust z-score 1.25; viability hit class no change; caspase hit class no change; inactive.

3 entries from above, sorted by “viability robust z-score”, lowest first.
hsa-miR-892b — viability robust z-score: -2.65; caspase robust z-score: 2.94; viability hit class: no change; caspase hit class: no change; activity call: inactive
hsa-miR-151-5p — viability robust z-score: -0.43; caspase robust z-score: -0.62; viability hit class: no change; caspase hit class: no change; activity call: inactive
hsa-miR-1246 — viability robust z-score: 0.2; caspase robust z-score: 1.27; viability hit class: no change; caspase hit class: no change; activity call: inactive

Continued.
hsa-miR-548a-3p showed viability robust z-score -0.1; caspase robust z-score 0.02; viability hit class no change; caspase hit class no change; inactive.
For hsa-miR-548a-5p, the values are viability robust z-score 0.38; caspase robust z-score -0.58; viability hit class no change; caspase hit class no change; inactive.
With hsa-miR-636, the entry reads viability robust z-score 0.08; caspase robust z-score 0.06; viability hit class no change; caspase hit class no change; inactive.
hsa-miR-1255a showed viability robust z-score 0.6; caspase robust z-score 4.89; viability hit class no change; caspase hit class no change; inactive.
With hsa-miR-520d-3p, the entry reads viability robust z-score 0.18; caspase robust z-score 1.39; viability hit class no change; caspase hit class no change; inactive.
With hsa-miR-556-5p, the values are viability robust z-score 1.12; caspase robust z-score 0.57; viability hit class no change; caspase hit class no change; inactive.
